Experimental findings from the supplement of paper PMC5770031 are described below.

The other results are listed elsewhere or left out. Repeats in this data set agree poorly, so a single value says little.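 Flies heterozygous for the ATM8 allele over a balancer chromosome carrying normal ATM were mated with each other on treated food. Parents laid eggs for 5–6 days and the young then developed for about 12 days, so both parents and larvae ate the compound. The read-out is the share of all emerged adults that carry two ATM8 copies, compared with 2% DMSO control vials. The paper called compounds neutral at 10–20% such offspring, harmful below 10%, and helpful above 20%.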

The assay concerns Drosophila melanogaster ATM8 (temperature-sensitive ATM allele). Nature of the assay: fraction of eclosed F1 progeny that are homozygous ATM8 (rescue of developmental lethality); higher = more rescue of ATM8 developmental lethality; extreme values may be limits of the assay. Conditions: compound concentration applied to food 0.2 mM; 21 °C.
Consider `CC(C)[C@H](N)C(=O)OCC(CO)OCn1cnc2c(=O)nc(N)[nH]c21` (stereo partly drawn), for which the “fraction of eclosed F1 progeny that are homozygous ATM8” value (“fraction” for short) worked out at 0.0448.
With `NC(=O)c1ccc([N+](=O)[O-])cc1Cl` the figure was 0.143; with `O=C1OCCN1/N=C/c1ccc([N+](=O)[O-])o1`, 0.128.
With `O=C(/C=C/C(=O)Oc1ccccc1C(=O)O)Oc1ccccc1C(=O)O` the figure was 0.175; with `COc1ccc(-c2coc3cc(OC)cc(OC)c3c2=O)cc1`, 0.0247.
`O=c1c(O)c(-c2ccccc2)oc2cc(O)ccc12`: the “fraction” value came out at 0.111.
With `COc1ccc(C2CNC(=O)C2)cc1OC1CCCC1` (stereo not drawn) the figure was 0.152; with `O=c1c(O)c(-c2ccc(O)cc2O)oc2cc(O)cc(O)c12`, 0.0638.
With `OC[C@H]1O[C@@H](Oc2cc(O)cc(/C=C/c3ccc(O)cc3)c2)[C@H](O)[C@@H](O)[C@@H]1O` the figure was 0.143.
With `COc1cc(-c2coc3cc(O[C@@H]4O[C@H](CO)[C@@H](O)[C@H](O)[C@H]4O)c(OC)c(O)c3c2=O)cc(O)c1OC` the figure was 0.13; with `CCCCCCCCCCC[C@@H](C[C@@H]1OC(=O)[C@H]1CCCCCC)OC(=O)[C@H](CC(C)C)NC=O`, 0.0635; with `CC(=O)N[C@@H](CC(=O)O)C(=O)O`, 0.15.
Take `O=C1O[C@H](CO)[C@@H](O)[C@H](O)[C@H]1O`: the “fraction” value worked out at 0.068.
As for `COc1cc(C/C=C/c2ccccc2)c(OC)cc1O`, the figure is 0.207; as for `COc1ccc(-c2oc3ccccc3c(=O)c2OC)cc1`, 0.2; as for `CC1(C)C(=O)C=C[C@@]2(C)C1=C(O)C(=O)[C@]1(C)[C@@H]2CC[C@@]2(C)[C@H](c3ccoc3)C[C@H]3O[C@]321`, 0.
As for `CO[C@H]1C[C@H](O[C@H]2[C@H](C)[C@@H](O[C@@H]3O[C@H](C)C[C@H](N(C)C)[C@H]3OC(C)=O)[C@@H](C)C[C@@]3(CO3)C(=O)[C@H](C)[C@@H](OC(C)=O)[C@@H](C)[C@@H](C)OC(=O)[C@@H]2C)O[C@@H](C)[C@@H]1OC(C)=O`, the figure is 0.075; as for `O=C(O)CCCN1C(=O)c2cccc3cccc(c23)C1=O`, 0.118; as for `O=C(O)C1CSCN1` (stereo not drawn), 0.163.
As for `CC(C)(S)[C@@H](N)C(=O)O`, the figure is 0.188.
Take `C=CCCCCCCCCCCCC(O)CC(O)COC(C)=O` (stereo not drawn): the “fraction” value was 0.
`C[C@H]1CC[C@]2(NC1)O[C@H]1C[C@H]3[C@@H]4CC[C@H]5C[C@@H](O[C@@H]6O[C@H](CO)[C@H](O[C@@H]7O[C@H](CO)[C@@H](O)[C@H](O[C@@H]8OC[C@@H](O)[C@H](O)[C@H]8O)[C@H]7O[C@@H]7O[C@H](CO)[C@@H](O)[C@H](O)[C@H]7O)[C@H](O)[C@H]6O)CC[C@]5(C)[C@H]4CC[C@]3(C)[C@H]1[C@@H]2C`: the “fraction” value was 0.225.
With `Cc1c(O)c(O)cc2c1CC=C1[C@@]2(C)CC[C@@]2(C)[C@@H]3C[C@](C)(C(=O)O)CC[C@]3(C)CC[C@]12C`, the “fraction” value came out at 0.102.
As for `CC(=O)NO`, the figure is 0.025; as for `CC(=O)N[C@@H](CCC(N)=O)C(=O)O`, 0.167; as for `COc1ccc(-c2c(O)c3c(OC)c4c(cc3oc2=O)OC(C)(C)C=C4)cc1`, 0.0857.
As for `CC(C)(Oc1ccc(Cl)cc1)C(=O)O`, the figure is 0.115.
As for `CN1CCCN=C1COC(=O)C(O)(c1ccccc1)C1CCCCC1` (stereo not drawn), the figure is 0.191.
Turning to `O=C1CCO1`, the “fraction” value is 0.0506.
With `CCC1(CC)C(=O)NC(=O)NC1=O` the figure was 0.146; with `OC[C@@H](O)C(O)[C@H](O)CO`, 0.0417.
In the case of `CC(C)(Sc1cc(C(C)(C)C)c(O)c(C(C)(C)C)c1)Sc1cc(C(C)(C)C)c(O)c(C(C)(C)C)c1`, the “fraction” value amounted to 0.116.
With `COc1cc(-c2coc3cc(OC)c(OC)c(OC)c3c2=O)cc(OC)c1OC` the figure was 0.0909.
`CCC(=O)c1ccc(O)cc1`: the “fraction” value turned out to be 0.188.
As to `Nc1c(Br)cc(Br)cc1CN[C@H]1CC[C@H](O)CC1`, the “fraction” value is 0.172.
With `Oc1ccc(Cl)c2cccnc12` the figure was 0.0312; with `Cn1ccnc1S`, 0.0263.
With `C[C@]12CCC3c4ccc(OC(=O)c5ccccc5)cc4CCC3C1CCC2=O` (stereo partly drawn) the figure was 0.106.
With `O=C[C@H](O)[C@H](O)CO` the figure was 0.208; with `N#CC(c1ccc(Cl)cc1)c1c(Cl)cc(-n2ncc(=O)[nH]c2=O)cc1Cl` (stereo not drawn), 0; with `COc1cc(OC)c(C(=O)CCCN2CCCC2)c(OC)c1`, 0.0769.
Turning to `CN1CCC(=C2c3ccccc3CC(=O)c3sccc32)CC1`, the “fraction” value came out at 0.0476.
As for `COc1ccccc1N1CCN(CC(O)COc2cccc3ccccc23)CC1` (stereo not drawn), the “fraction” value was determined as 0.102.
For the molecule `CCCN(CCC)C(=O)C(CCC(=O)O)NC(=O)c1ccccc1` (stereo not drawn), the “fraction” value is 0.12.
With `CCCCC[C@H](CC(=O)O)C(=O)O` the figure was 0.135; with `O=c1ccc2ccccc2[nH]1`, 0.0455.
With `CC[C@H](CC[C@@H](C)[C@H]1CC[C@H]2[C@@H]3CC=C4C[C@@H](O)CC[C@]4(C)[C@H]3CC[C@]12C)C(C)C` [beta-SITOSTEROL] the figure was 0.188; with `C[C@@H]1[C@H](O)[C@@H](C)/C=C/C=C/C=C/C=C/C=C/C=C/C=C/[C@H](O[C@@H]2O[C@H](C)[C@@H](O)[C@H](N)[C@@H]2O)C[C@@H]2O[C@](O)(C[C@@H](O)C[C@@H](O)[C@H](O)CC[C@@H](O)C[C@@H](O)CC(=O)O[C@H]1C)C[C@H](O)[C@H]2C(=O)O`, 0.05.
